{
  "source": "patent US12414960B2",
  "about": "“Analogues of oleuropein and oleacein and uses thereof” (Attica Sciences Ltd., priority 2020, dated 2025)",
  "origin": "cited, not measured here",
  "conditions": "after olive oil consumption, literature; cited from earlier work",
  "note": "Some of these results come from one statement about several compounds together.",
  "data": [
    {"smiles": "OCCc1ccc(O)cc1", "note": "[tyrosol]", "values": [
      {"measurement": "time of peak urine concentrations after consumption", "result": "0 to 2", "unit": "h"}
    ]},
    {"smiles": "OCCc1ccc(O)c(O)c1", "note": "[Hydroxytyrosol]", "values": [
      {"measurement": "time of peak urine concentrations after consumption", "result": "0 to 2", "unit": "h"}
    ]}
  ]
}
